Test in all cases: cross-linking
The target in test [1] is T1, FepA L85C (Escherichia coli K-12) (UniProt P05825).
T1 sequence: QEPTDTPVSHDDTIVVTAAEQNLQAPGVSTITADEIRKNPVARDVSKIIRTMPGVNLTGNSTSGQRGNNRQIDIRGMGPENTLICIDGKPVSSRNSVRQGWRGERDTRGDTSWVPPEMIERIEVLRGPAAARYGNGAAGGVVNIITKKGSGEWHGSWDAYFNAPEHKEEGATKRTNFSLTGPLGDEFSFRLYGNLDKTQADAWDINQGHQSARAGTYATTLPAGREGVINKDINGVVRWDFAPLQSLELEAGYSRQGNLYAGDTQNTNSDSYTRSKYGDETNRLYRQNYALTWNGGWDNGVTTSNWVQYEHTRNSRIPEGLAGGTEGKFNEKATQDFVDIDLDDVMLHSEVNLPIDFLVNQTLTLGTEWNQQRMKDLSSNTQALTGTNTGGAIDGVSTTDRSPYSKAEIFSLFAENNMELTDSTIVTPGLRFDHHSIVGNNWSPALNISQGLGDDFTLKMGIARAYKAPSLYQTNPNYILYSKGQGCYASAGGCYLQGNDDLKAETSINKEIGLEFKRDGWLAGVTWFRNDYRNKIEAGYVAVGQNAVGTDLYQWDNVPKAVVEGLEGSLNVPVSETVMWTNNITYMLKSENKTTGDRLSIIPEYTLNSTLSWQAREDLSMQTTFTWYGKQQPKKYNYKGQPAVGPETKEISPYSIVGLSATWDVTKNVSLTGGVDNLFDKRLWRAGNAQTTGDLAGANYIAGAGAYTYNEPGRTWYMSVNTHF

Chains of the proteins cited; added tags and fusions are not shown. Lines headed by an entry give the natural chain unless they say otherwise; changes in a name come on top.
UniProt P02929, whole entry, looked up, stated change not applied: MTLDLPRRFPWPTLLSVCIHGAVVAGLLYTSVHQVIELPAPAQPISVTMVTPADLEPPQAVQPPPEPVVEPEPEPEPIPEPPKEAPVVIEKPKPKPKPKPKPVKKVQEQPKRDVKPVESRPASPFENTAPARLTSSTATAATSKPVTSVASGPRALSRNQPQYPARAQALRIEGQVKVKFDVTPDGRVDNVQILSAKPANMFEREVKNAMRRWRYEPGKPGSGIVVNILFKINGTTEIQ

The target of test [2] is T2, FepA E567C (Escherichia coli K-12) (UniProt P05825).
T2 sequence: T1 sequence with C85L, E567C

Test [3] deals with T3, FepA D12C (Escherichia coli K-12) (UniProt P05825).
T3 sequence: T1 sequence with D12C, C85L

Drawing on doi:10.1101/2021.12.08.471779, this text covers binding for 13 substances.

Positions count from the first letter of the chain named. Results are given in words; binding and its absence hold for the method and conditions named. In cells and extracts the contact can be indirect. Some results given as binding are weak or reduced against the parent protein; the word gives no strength.

Consider “TonB C18G A209C (from UniProt P02929 1-239)”, for which the binding entry in test [1], in test [2] and in test [3] was “no binding” throughout.

For “TonB C18G H20A A209C (from UniProt P02929 1-239)”, the binding result in test [3] is on record as “no binding”.

“TonB C18G H20A N208C (from UniProt P02929 1-239)”: the binding result in test [3] is “no binding”.

Consider “TonB C18G H20A R204C (from UniProt P02929 1-239)”, for which the binding entry in test [3] is listed as “no binding”.

Regarding “TonB C18G H20A R212C (from UniProt P02929 1-239)”, in test [3], the binding result is “no binding”.

As to “TonB C18G H20A V206C (from UniProt P02929 1-239)”, the binding result in test [3] is “no binding”.

With “TonB C18G M201C (from UniProt P02929 1-239)”, the binding result in test [1] and in test [2] was “no binding” throughout.

On to “TonB C18G N208C (from UniProt P02929 1-239)”, for which the binding entry in test [1] is listed as “no binding”; in test [2] it was “no binding”; in test [3], “binds”.

Regarding “TonB C18G Q160C (from UniProt P02929 1-239)”, the binding result in test [1] and in test [2] was “no binding” throughout.

Regarding “TonB C18G R204C (from UniProt P02929 1-239)”, the binding entry is listed as “no binding” in test [1], “no binding” in test [2] and “binds” in test [3].

Take “TonB C18G R212C (from UniProt P02929 1-239)”: the figures for the binding entry in test [1], in test [2] and in test [3] were “no binding”, “no binding” and “binds”, respectively.

Regarding “TonB C18G R214C (from UniProt P02929 1-239)”, the binding entry in test [1] and in test [2] was “no binding” in each case.

Consider “TonB C18G V206C (from UniProt P02929 1-239)”, for which the binding entry in test [1], in test [2] and in test [3] was “no binding” each time.
